# Publication PMC4737761
# These are yes or no findings as the source states them, for the method shown. Some binding calls cover weakened binding; strength is not graded here.
# T1: Ffh, the protein of the signal recognition particle (SRP) (E. coli), P0AGD7
# T1 chain: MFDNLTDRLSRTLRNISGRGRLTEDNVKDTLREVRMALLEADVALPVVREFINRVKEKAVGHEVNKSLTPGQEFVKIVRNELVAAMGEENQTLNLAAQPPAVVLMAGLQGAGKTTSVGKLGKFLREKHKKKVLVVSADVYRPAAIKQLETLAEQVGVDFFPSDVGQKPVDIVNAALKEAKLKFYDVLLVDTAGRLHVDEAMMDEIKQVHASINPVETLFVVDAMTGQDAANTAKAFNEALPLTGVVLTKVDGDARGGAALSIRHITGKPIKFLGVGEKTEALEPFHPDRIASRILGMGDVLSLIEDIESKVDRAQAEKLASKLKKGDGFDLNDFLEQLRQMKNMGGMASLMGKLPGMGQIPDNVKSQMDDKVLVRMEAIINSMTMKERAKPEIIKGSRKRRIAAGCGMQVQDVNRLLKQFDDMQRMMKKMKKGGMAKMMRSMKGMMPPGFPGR
# B1: FtsY, the SRP receptor (SR), P10121 1-497 (receptor)
# chain: MAKEKKRGFFSWLGFGQKEQTPEKETEVQNEQPVVEEIVQAQEPVKASEQAVEEQPQAHTEAEAETFAADVVEVTEQVAESEKAQPEAEVVAQPEPVVEETPEPVAIEREELPLPEDVNAEAVSPEEWQAEAETVEIVEAAEEEAAKEEITDEELETALAAEAAEEAVMVVPPAEEEQPVEEIAQEQEKPTKEGFFARLKRSLLKTKENLGSGFISLFRGKKIDDDLFEELEEQLLIADVGVETTRKIITNLTEGASRKQLRDAEALYGLLKEEMGEILAKVDEPLNVEGKAPFVILMVGVNGVGKTTTIGKLARQFEQQGKSVMLAAGDTFRAAAVEQLQVWGQRNNIPVIAQHTGADSASVIFDAIQAAKARNIDVLIADTAGRLQNKSHLMEELKKIVRVMKKLDVEAPHEVMLTIDASTGQNAVSQAKLFHEAVGLTGITLTKLDGTAKGGVIFSVADQFGIPIRYIGVGERIEDLRPFKADDFIEALFARED
# Target: T1, Ffh, the protein of the signal …
# Assay: cryo-EM structure; RNC-SRP-SR: RNC incubated with a 1:3 molar excess of SRP and SR, 37 °C 30 min then 4 °C 30 min, 250 nM; same buffer with 2 mM GMPNP; 'early' and 'closed' states, 3.8 and 3.7 Å; both purified
# Details: remark: other sources report otherwise
binder,measurement,value
B1,binding,binds
